Tested on: HFD-fed mice
Assay: GABA in drinking water of high fat diet (HFD) fed mice
Assay type: in vivo
Conditions: GABA 6 mg/ml in water vs normal water
Protocol: Mice were fed high fat diet (HFD) or “western diet” causing them to gain weight, become obese, and develop glucose intolerance, insulin resistance, and metabolic syndrome. The mice were provided either normal water, or water that contained GABA (6 mg/ml). The weight, food intake, water intake, glucose tolerance, insulin sensitivity and blood glucose levels of the mice was monitored over 5 months.

NCCCC(=O)O [GABA, 4-aminobutanoic acid]
amount of food consumed (over 5 months (FIG. 1)): no differences | amount of water consumed (over 5 months (FIG. 2)): no differences
